Patent US20230365647A1 (priority 2020, published 2023)
At least one peptide structure holds a part that was inferred or is arguable (an end, a ring closure or a residue). Some results were stated once for a whole list of compounds, not compound by compound. Where no end group is shown, it is not given here.

Assays:
[1] = target: T1, LLO (Listeria monocytogenes serotype 4a, UniProt B8DGM3)
[2] = target: T2, PLY (Streptococcus pneumoniae serotype 4, UniProt P0C2J9)
[3] = system: S. pneumoniae T4; parameters: species or system zebrafish (Danio renio); settings: in vivo
[4] = system: wild-type pneumococci T4 (TIGR4); assay type: cell-based
[5] = target: T1, LLO; assay type: binding
[6] = system: pneumococci of type 4 or type 2; assay type: cell-based, Streptococcus pneumoniae
[7] = target: T2, PLY; assay type: cell-based
[8] = target: T2, PLY; assay type: cell-based; remark: listed apart in the source
[9] = target: T1, LLO; assay type: cell-based; settings: 18 h
[10] = system: pneumococcal strain T4 (TIGR4 of serotype 4); assay type: binding
[11] = target: T2, PLY; assay type: cell-based; remark: listed apart in the source
[12] = target: T2, PLY; assay type: cell-based; settings: 18 h
[13] = system: L. monocytogenes type 1; assay type: cell-based, Listeria monocytogenes
[14] = system: human THP-1 derived macrophages; assay type: cell-based
[15] = system: S. pneumoniae T4R; assay type: cell-based
[16] = target: T2, PLY; assay type: binding
[17] = system: S. pneumoniae T4; settings: mouse, in vivo
[18] = system: S. pyogenes type M1T1; assay type: cell-based
[19] = target: T2, PLY; assay type: cell-based; settings: 18 h; remark: listed apart in the source
[20] = system: pneumococci, type 2 (D39) or type 4 (T4); assay type: cell-based, Streptococcus pneumoniae
[21] = system: S. pneumoniae T4; assay type: cell-based, Streptococcus pneumoniae
[22] = target: T1, LLO; assay type: cell-based
[23] = system: S. pyogenes type M1T1; assay type: cell-based, Streptococcus pyogenes

## YENWAYGEPNNYQ [P3, YENWAYGEPNNYQ]
[1]
  LLO-induced hemolysis, residual red blood cell pellet: inhibited
[2]
  PLY-induced hemolysis, residual red blood cell pellet: inhibited

## FTWSDGSPVSYEN [P2, FTWSDGSPVSYEN]
[3]
  survival of infected zebrafish embryos: significantly improved the survival
[4]
  number of invading bacteria in lung epithelial model (CFU): significantly reduced
[5]
  binding to LLO (ELISA): bound dose-dependently
[6]
  intracellular bacteria in DCs (fluorescence microscopy): devoid of intracellular bacteria
[7]
  LDH release into the supernatant of lung tissue model: significantly reduced
[8]
  loss of GFP expression by epithelial cells: significantly lower
[9]
  cell death of macrophages induced by LLO (LDH release): significantly reduced cell death
[10]
  binding of FITC-labelled peptide to PLY deficient strain T4Δply: not
  binding of FITC-labelled peptide to PLY-producing strain T4: bound
[11]
  protection of THP-1 macrophages from PLY cytolysis (live/dead stain): most of the cells were intact
[12]
  cell death of macrophages induced by PLY (LDH release): significantly reduced cell death
[13]
  hemolytic activity of L. monocytogenes type 1: significantly reduced
[1]
  LLO-induced hemolysis, residual red blood cell pellet: inhibited
[14]
  release of IL-8: significantly reduced
  release of IL-12: significantly reduced
  release of TNF-α: significantly reduced
[15]
  co-localization of intracellular T4R with MRC-1: did not co-localize
  co-localization of intracellular T4R with autophagy marker LC3B: co-stained
  effect on co-localization of PLY mutant T4RΔply: no effect
[16]
  binding to PLY (ELISA): bind dose-dependently
[2]
  PLY-induced hemolysis, increasing concentrations of the peptides: dose-dependently inhibited
  PLY-induced hemolysis, residual red blood cell pellet: inhibited
[17]
  IL-12 level in the lung tissue: significantly reduced
  TNF-α level in the lung tissue: significantly reduced
  survival of mice in comparison to the infected group: prolonged survival
[18]
  co-localization of intracellular S. pyogenes with LC3B: co-stained
  effect on colocalization of SLO mutant S. pyΔslo: no effect
[18]; 2 h
  co-localization of intracellular S. pyogenes with MRC-1: do not colocalize
[19]
  release of IL-8 in lung tissue model: significantly reduced release
  release of TNF-α in lung tissue model: significantly reduced release
[20]
  number of intracellular bacteria in DCs (CFU): significantly reduced
[21]
  hemolytic activity of pneumococcal strain T4: significantly reduced
[22]
  protection of THP-1 macrophages from LLO cytolysis (live/dead stain): protected the cells from cytolysis
[23]
  hemolytic activity of S. pyogenes type M1T1: significantly reduced
